Data: PubChem BioAssay AID2685 (National Center for Advancing Translational Sciences (NCATS), 2010)
Some of the results follow. The main result of the screen is listed elsewhere. These columns were measured beside it and carry no call. The list favours compounds with an active or inconclusive main result. The note in brackets gives the kind of curve behind each potency; many fits are weak.

Assay: qHTS Assay for Lipid Storage Modulators in Drosophila S3 Cells;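 as to cell number change: cells counted by Cell Tracker Red CMTPX staining in the red channel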
Details: BODIPY lipid droplet fluorescence, 18-24 h; for cell number change: measured here: cell count max response, cells fed with added oleic acid
Outline: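 Drosophila S3 cells got compounds at several concentrations plus oleic acid (400 uM solution). Laser-scanning cytometry with 488 nm excitation read lipid droplets at 500-530 nm and cells at 575-640 nm. Percent activity was relative to 20 uM Triacsin C.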

[1] = measured here: lipid fluorescence (Fed channel) AC50, cells fed with added oleic acid
[2] = measured here: cell number channel AC50, cells fed with added oleic acid

Compound	cell number change [%]	AC50 [1]	AC50 [2]
CC1CCN(S(=O)(=O)c2nnc(NC(=O)COc3ccccc3F)s2)CC1	34	–	–
CCN(CC)C(=O)C(C)OC(=O)c1ccc(O)cc1 (centres undefined)	-11.5	20.6 µM [falling, single point]	–
O=C(Nc1c(-c2cccs2)nc2ccccn12)c1ccc2ccccc2c1	9.44	16.4 µM [rising, single point]	–
O=C(Cc1cccs1)N1CCCC(c2nc3c(nnn3Cc3cccc(Cl)c3)c(=O)[nH]2)C1 (centres undefined)	-11	29.1 µM [rising, single point]	–
CN(C(=O)Cn1c(=O)oc2ccccc21)C1CCCCC1	3.48	2.91 µM [rising, full curve, poor fit]	–
COCCN(C(=O)CSc1nnc(-c2ccccc2F)o1)c1c(N)n(CC(C)C)c(=O)[nH]c1=O	1.2	–	–
O=C(Cc1ccc(Cl)cc1)NCC(=O)N1CCCC1	-9.75	0.164 µM [falling, full curve]	1.84 µM [falling, partial curve, poor fit]
Cc1cc(C)c2c(n1)nn1c(N3CCN(Cc4ccccc4)CC3)cc(C)nc21	13.5	20.6 µM [rising, single point]	0.517 µM [rising, full curve]
Cn1c(-c2cc(Br)ccc2O)n[nH]c1=S	-32.5	0.58 µM [rising, full curve, poor fit]	13 µM [falling, partial curve]
COC(=O)CC1SC(=O)NC1=Nc1ccc(C)cc1 (centres undefined)	–	0.58 µM [rising, single point]	–
COc1cccc(N(CC(=O)N/N=C(\C)c2cccs2)S(C)(=O)=O)c1	–	5.17 µM [rising, partial curve, poor fit]	–
CC(C)c1ccc(C2C3=C(CC(C)(C)CC3=O)NC3=C2C(=O)c2ccccc23)cc1 (centres undefined)	-59.2	23.1 µM [falling, partial curve]	25.9 µM [falling, partial curve]
Cc1ccc(S(=O)(=O)NCC(c2ccc3c(c2)OCO3)N2CCOCC2)cc1 (centres undefined)	–	0.651 µM [falling, partial curve]	0.731 µM [falling, full curve, poor fit]
O=C(N=C1SCC(=O)N1c1ccccc1Cl)c1ccccc1	-24.1	0.00461 µM [falling, full curve, poor fit]	0.164 µM [falling, partial curve, poor fit]
CCn1c(C)nc2cc(C(N)=O)ccc21	-13.4	6.51 µM [falling, single point]	–
Cc1cccc(N2C(=O)c3cccc4cccc(c34)C2=O)c1	18.6	–	0.731 µM [rising, full curve, poor fit]
O=C(O)c1ccc2c(c1)CCC2	-17.3	–	–
OCC[C@@H]1C[C@H](O)[C@@H](O)[C@@]2(OCc3ccccc32)O1	26.3	–	–
O=C(NCc1ccccn1)c1ccccc1OCc1ccc(Cl)cc1Cl	39.5	0.116 µM [rising, full curve, poor fit]	18.4 µM [rising, single point]
CCCc1nnc(NC(=O)CCC(=O)N2CCN(Cc3ccc(C)cc3C)CC2)s1	21.1	29.1 µM [rising, single point]	–

4 records picked at random from those above:
Compound	cell number change [%]	AC50 [1]	AC50 [2]
O=C(NCc1ccccn1)c1ccccc1OCc1ccc(Cl)cc1Cl	39.5	0.116 µM [rising, full curve, poor fit]	18.4 µM [rising, single point]
Cc1ccc(S(=O)(=O)NCC(c2ccc3c(c2)OCO3)N2CCOCC2)cc1 (centres undefined)	–	0.651 µM [falling, partial curve]	0.731 µM [falling, full curve, poor fit]
CN(C(=O)Cn1c(=O)oc2ccccc21)C1CCCCC1	3.48	2.91 µM [rising, full curve, poor fit]	–
Cn1c(-c2cc(Br)ccc2O)n[nH]c1=S	-32.5	0.58 µM [rising, full curve, poor fit]	13 µM [falling, partial curve]

The list goes on.

Compound	cell number change [%]	AC50 [1]	AC50 [2]
CCCCn1c(N)c(N(CCC(C)C)C(=O)C2=NN(c3cc(C)ccc3C)C(=O)CC2)c(=O)[nH]c1=O	0.5	–	–
CCN(C(=O)COC(=O)c1c(-c2ccccc2)noc1C)c1c(N)n(Cc2ccccc2)c(=O)[nH]c1=O	-31.1	13 µM [falling, partial curve]	–
CCOC(=O)/C(=N\Nc1ccccc1[N+](=O)[O-])c1csc(N)n1	-4.23	6.51 µM [falling, single point]	–
COc1ccc(C2(c3ccc(OC)cc3)NC(=O)N(CC(=O)Nc3ccc(OC)c(OC)c3)C2=O)cc1	-2.7	–	–
CCn1c(=O)c(C(=O)NCCc2ccccc2)c(O)c2ccccc21	290	14.6 µM [rising, partial curve]	25.9 µM [rising, single point]
Cc1ccc(C2=[N+]([O-])C3(CCCCC/C3=N\O)N(O)C2(C)C)o1 (centres undefined)	-21.9	20.6 µM [falling, single point]	–
CCCCC(Br)C(=O)Nc1ccc(S(=O)(=O)Nc2cc(C)nc(C)n2)cc1 (centres undefined)	28.2	–	2.31 µM [rising, full curve, poor fit]
O=C(CSc1nc2ccccc2c(=O)n1-c1ccccc1)NCc1ccc2c(c1)OCO2	–	0.291 µM [rising, partial curve, poor fit]	–
Oc1ccc(Nc2nc(Cl)nc(NCc3ccco3)n2)cc1	-23	29.1 µM [rising, single point]	–
CCn1c(=O)c(C(=O)NNC(=O)c2ccccc2)c(O)c2ccccc21	-10.5	5.62 µM [falling, single point]	–
O=C(NCCN1CCOCC1)c1cccc(S(=O)(=O)Nc2ccc(Br)cc2)c1	-13.4	16.4 µM [falling, single point]	–
CCc1ccc(C(CC(=O)O)N2Cc3ccccc3C2=O)cc1 (centres undefined)	-23.7	16.4 µM [falling, partial curve, poor fit]	–
COc1cccc(C(=O)C[n+]2ccccc2/C=N/O)c1	25.1	9.2 µM [rising, partial curve]	–
CCS(=O)(=O)c1ccc2c(c1)N(S(=O)(=O)c1ccc(Cl)cc1)CC(C(=O)O)O2 (centres undefined)	-45.4	–	–
c1ccn2cc(CSC3=NCCS3)nc2c1	–	6.51 µM [rising, single point]	6.51 µM [rising, single point]
Cc1cccc(NC(=O)NCCN2CCCCC2)c1	3.7	–	–
Nc1cccc(C(=O)N/N=C/c2ccsc2)c1	15.2	0.461 µM [falling, single point]	–
CCCCn1c(N)c(N(CC(C)C)C(=O)c2ccc(OCc3c(C)noc3C)cc2)c(=O)[nH]c1=O	0.321	2.31 µM [rising, full curve]	–
CCOc1ccc(NC(=O)CC(c2ccccc2)c2ccc(F)cc2)cc1 (centres undefined)	11.1	–	–
COc1cccc(NC(=O)CN2C(=O)CSc3ccc(S(=O)(=O)N4CCC(C)CC4)cc32)c1	6.1	0.13 µM [falling, full curve, poor fit]	–

Compound	cell number change [%]	AC50 [1]	AC50 [2]
Cc1cc(CNC(=O)[C@H]2C[C@@H]2[C@H](NP(=O)(c2ccccc2)c2ccccc2)c2ccccc2)nn1C	0.533	14.6 µM [rising, single point]	–
COc1cc(NC(=O)Cn2c([N+](=O)[O-])cnc2C)c(OC)cc1Cl	-11.3	–	–
S=C(Nc1cccc(Cl)c1)N(CCCN1CCCC1)Cc1cccn1Cc1ccc(Cl)cc1	-69.8	29.1 µM [falling, single point]	29.1 µM [falling, single point]
CCOC(=O)c1c(C)[nH]c(C(=O)NCc2ccco2)c1C	22.1	2.31 µM [rising, partial curve, poor fit]	0.0259 µM [rising, full curve, poor fit]
O=C(/C=C/c1ccc(S(=O)(=O)N2CCOCC2)cc1)N(CCO)Cc1ccccc1	9.59	4.11 µM [falling, single point]	4.11 µM [falling, single point]
CC(Sc1nc(O)c(-c2ccccc2)c(=O)[nH]1)C(=O)Nc1ccc(Cl)cc1 (centres undefined)	22	0.00461 µM [rising, full curve, poor fit]	–
c1ccc(-c2c(-c3ccccc3)n(Cc3ccco3)c3ncnc(NCCCn4ccnc4)c23)cc1	-87.6	–	–
COc1ccc(C)cc1NC(=O)CSc1nnc2ccc(-c3ccccn3)nn12	-17.6	18.4 µM [falling, partial curve, poor fit]	–
COc1ccc(NCC(=O)N/N=C/C=C/c2ccccc2[N+](=O)[O-])cc1	14	0.517 µM [rising, full curve]	0.82 µM [rising, full curve, poor fit]
Cn1nc(C(=O)OCC(=O)c2ccc[nH]2)c2ccccc2c1=O	-108	29.1 µM [falling, single point]	18.4 µM [falling, partial curve]
Cn1nnnc1SCC(=O)N1CCc2ccccc21	-24	7.31 µM [falling, partial curve]	–
COC(=O)C1=C(C)OC(N)=C(C#N)C1c1ccccc1 (centres undefined)	5.68	0.0206 µM [rising, full curve, poor fit]	–
O/N=C1/CCc2cccc3cccc1c23	8.12	–	–
CCC(=O)Nc1ccc(Cl)c(NC(=O)c2ccc(Br)o2)c1	-5.87	0.013 µM [rising, full curve, poor fit]	–
COc1ccc(NC(=O)CCn2c(=S)[nH]c3ccccc3c2=O)cc1	85.8	–	25.9 µM [rising, partial curve, poor fit]
COc1ccccc1NC(=O)Oc1ccc(C(C)=O)cc1	2.53	–	–
CC1(C)CC(=O)C2=C(C1)OC1=C(C(=O)CC(C)(C)C1)C2(C)C	-65.8	29.1 µM [falling, single point]	2.31 µM [rising, partial curve, poor fit]
C=CCc1ccc(OCCCN2CCCC(C)C2)c(OC)c1 (centres undefined)	22.8	29.1 µM [rising, single point]	–
CC(=O)NCc1ccc(C(=O)CN2C(=O)NC3(CCCCC3C)C2=O)s1 (centres undefined)	–	5.17 µM [rising, partial curve, poor fit]	–
